In patent publication US20050079232A1, “Composition for promotion of bone growth and maintenance of bone health” (priority 2001, published 2005):
“Also recorded” adds a separate entry of the source. At least one structure is not confirmed: it was looked up by name or label, or the drawing left a doubt.

Tested on: BMP-2 promoter
Experiment: BMP-2 luciferase assay (BMP-2 gene reporter assay, bone formation)
Format: cell-based
Settings: 2T3 cells, BMP-2 promoter-luciferase; result in words
Procedure: BMP-2 luciferase assay—The activity of the extracts was determined using 2T3 cells containing the BMP-2 promoter operatively linked to the luciferase gene. An increase in luciferase activity in cell lysates reflects an increase in BMP-2 promoter activity. The extracts were assayed at an initial dilution of 100 μg/ml with ½ dilutions down to 0.2 μg/ml. BMP-2 promoter activity was measured by measuring the luciferase activity in cell extracts.

C[C@]12CC[C@@H]3c4ccc(O)cc4CC[C@H]3[C@@H]1CC[C@@H]2O [estradiol]
stimulation of BMP-2 (promoter activity): did not; also recorded: not stimulated
